Among the data in publication PMC10023806 are binding values, retold here.

Chains of the proteins cited; added tags and fusions are not shown.
UniProt Q9H8M2: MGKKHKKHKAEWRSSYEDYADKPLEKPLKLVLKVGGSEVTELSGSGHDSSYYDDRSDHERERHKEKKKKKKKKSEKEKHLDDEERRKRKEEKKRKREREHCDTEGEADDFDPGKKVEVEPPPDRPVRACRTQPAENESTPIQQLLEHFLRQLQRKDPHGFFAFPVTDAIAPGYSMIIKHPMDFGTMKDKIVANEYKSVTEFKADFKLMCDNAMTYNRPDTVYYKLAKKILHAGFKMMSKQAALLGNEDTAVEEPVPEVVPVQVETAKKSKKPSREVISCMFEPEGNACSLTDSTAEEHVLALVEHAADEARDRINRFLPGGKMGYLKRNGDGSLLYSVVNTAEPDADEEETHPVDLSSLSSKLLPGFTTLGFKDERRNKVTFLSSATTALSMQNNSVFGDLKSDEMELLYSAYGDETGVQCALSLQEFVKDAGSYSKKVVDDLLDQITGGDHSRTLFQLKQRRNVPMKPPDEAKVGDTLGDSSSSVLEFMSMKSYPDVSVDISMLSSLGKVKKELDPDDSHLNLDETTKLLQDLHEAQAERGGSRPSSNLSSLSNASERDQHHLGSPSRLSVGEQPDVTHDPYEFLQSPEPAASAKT

Results are given in words; binding and its absence hold for the method and conditions named. Binding seen in cells or lysates may run through a third protein. Some entries that bind do so weakly or less than the wild type. Where a sequence is shown, tags or fusion partners need not be part of it.

In test [1] the target is T1, FLAG-BirA*-MCIDAS (human) (UniProt D6RGH6).
T1 sequence: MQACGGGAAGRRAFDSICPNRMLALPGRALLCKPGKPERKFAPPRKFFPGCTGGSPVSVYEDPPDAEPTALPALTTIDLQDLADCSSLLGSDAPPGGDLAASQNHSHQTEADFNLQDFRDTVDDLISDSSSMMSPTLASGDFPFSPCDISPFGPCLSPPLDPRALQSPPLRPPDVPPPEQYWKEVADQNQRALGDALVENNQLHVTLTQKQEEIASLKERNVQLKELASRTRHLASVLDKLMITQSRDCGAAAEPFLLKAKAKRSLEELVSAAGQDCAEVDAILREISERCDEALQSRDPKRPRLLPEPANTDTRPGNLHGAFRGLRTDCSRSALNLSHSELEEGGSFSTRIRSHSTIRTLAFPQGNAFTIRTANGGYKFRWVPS
As to the kind of experiment: proximity ligation; Duolink PLA in transfected HeLa cells, fixed and permeabilised; BRD9 (rabbit) and FLAG (mouse) primary antibodies.

Test [2] concerns the target T1, FLAG-BirA*-MCIDAS (human). The experiment in a line: proximity ligation; PLA with FLAG and BRD9 antibodies in doxycycline-induced DBTRG-05MG cells at Day 3 and Day 7, counterstained with acetylated tubulin; with or without dBRD9.

For BRD9 (from UniProt Q9H8M2 1-597), the binding entry in test [1] and in test [2] was “binds” throughout.
